## Primary screen of a compound library

Each number is a percent effect as filed.
How 0% and 100% were set is not recorded. Most values in the screen are low, and negative values occur.
Compounds were drawn at random from those tested, without regard to their results.
Two or more numbers in one place are separate tests of the same structure; such repeats can differ widely.

Mtb cholesterol medium: 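Phenotypic screen: M. tuberculosis growth, cholesterol and DPPC medium, 4 days; the read-out is not stated. Concentration: 50 µM. The record gives no direction; compounds that gave an IC50 in retests scored well above the rest, so higher reads as more growth inhibition. About 69,000 compounds were tested under these conditions; 0.54% (about 370) showed 50% or more at least once.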
Mtb glucose medium: 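Phenotypic screen: M. tuberculosis growth, glucose 7H9 medium, 3 days; the read-out is not stated. Tested at 50 µM. The record gives no direction; compounds that gave an IC50 in retests scored well above the rest, so higher reads as more growth inhibition. About 69,000 compounds were tested under these conditions; 1.1% (about 760) showed 50% or more at least once.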

Compound	Mtb cholesterol medium	Mtb glucose medium
O=C(CCc1nccs1)N1CCCC(n2cccn2)C1 (centres undefined)	-5.469	-1.999 and 15.83
Cn1ccc(C2CCCCN2C(=O)c2cccc(Cn3cccn3)c2)n1 (centres undefined)	2.214 and -10.24	-56.02
OCc1ccc(Cl)c(NCc2cccnc2)c1	-8.607	-7.017 and -26.32
O=C(CCN1CCc2cncnc2C1)N1CCc2sccc2C1	-26.72 and 4.409	-23.74
O=C(O)C(F)(F)F.[H][C@@]12CCN(Cc3cc(C)on3)C[C@]1(C(=O)NCc1ccco1)CCO2	7.014	-6.969 and 0.6336
CN1C(=O)CC(C(=O)O)C12CCN(Cc1ccc(Cl)c(Cl)c1)CC2 (centres undefined)	-15.14	-0.9505 and 20.09
CC(=O)c1cn(CCC(=O)N[C@H](C(=O)O)C(C)C)c2ccccc12	-13.51	-4.961
N#Cc1ccc(OCC(O)CN2CCN(c3nccs3)CC2)cc1 (centres undefined)	-18.89 and -2.278	-24.99
CC1CN(S(=O)(=O)c2ccc(C(=O)NCC(F)F)cc2)CCCO1 (centres undefined)	-2.398	-4.397
CCn1cnnc1CNC(=O)C1COc2ccc(Cl)cc2C1 (centres undefined)	-16.65	10.52
Cc1ccc(=O)n(CC(=O)N(C)Cc2csc(-c3cccs3)n2)n1	-10.19	-1.521
Cc1ccccc1CN1CCN(C(=O)CCn2ccccc2=O)CC1	-9.668	-6.643
CCc1cc(NC(C)(C)C)nc(N2CCOCC2)n1	1.163	19.93
CN(C)c1cncc(C2CCN(CC3(O)CCCCC3)CC2)n1	-22.11	-21.68
CNC(=O)c1cc2c(nc1NCC(C)C)CCN(c1ncccn1)CC2.O=C(O)C(F)(F)F	0.5015 and -13.35	-2.917 and 4.616
Cc1cc(CCC(=O)N(C)C)nc(C2CCCCN2)n1.Cl.Cl (centres undefined)	17.57	10.27
Cc1cc(C)c(OCC(=O)NS(=O)(=O)c2c(C)noc2C)c(C)c1	1.77	26.13
Cc1ccc(-c2nc(CN3CCCC3Cn3cncn3)cs2)o1 (centres undefined)	-8.902	-4.032
CN(C)S(=O)(=O)N1CCN(c2cc(-n3cccc3)ncn2)CC1	9.613	17.16 and 21.01
Cc1ccnc(NCc2cn3nc(C)sc3n2)n1	19.77	-1.623
CCc1sc(C(=O)N2CCC(Nc3ccc(C)nn3)CC2)cc1C	37.9	15.6
CN1CCN(C2CCN(CCOc3cccc(Cl)c3)CC2)C1=O	27.08	5.728
CNC(=O)CC1CCN(C(=O)NCc2cn3c(C)cccc3n2)CC1	-10.69	8.102
CCn1nc2c(cc1=O)CN(CC(=O)Nc1nc(C)c(C)s1)CC2	-10.89	17.7
CCCS(=O)(=O)N1Cc2nccn2CC(Cn2cccn2)C1 (centres undefined)	6.233 and 1.057	-33.03 and -0.6761
COc1ccccc1Oc1cncc(C2CCCN(C)C2)n1 (centres undefined)	-17.08	19.23
CCOc1cc(C(=O)NS(C)(=O)=O)cc(-c2ccccc2)c1OC	5.122	2.845 and 1.34
CCC[C@H]1CN(S(=O)(=O)c2c(C)noc2C)C[C@@H]1N	8.854	6.834
Cc1nc(C2CCCN2CC(=O)N2CCc3ccccc32)no1 (centres undefined)	11.76	5.141 and -16.95
O=C(O)C(F)(F)F.O=C(O)C(F)(F)F.c1cncc(OCC2CC3(CCN(CC4CC4)CC3)CO2)c1 (centres undefined)	2.087	20.23
CCn1c(N)nc2cc(C(=O)N3CCC(N4CCCC4)CC3)cnc21	-21.64	3.033
Cc1cn(CC(=O)NC2CCN(S(C)(=O)=O)CC2)c2ccccc12	5.719	19.96
COCc1nc(C(=O)NS(=O)(=O)c2ccc(C)cc2C)cs1	6.032	-9.959
[H][C@]12CN(C(=O)c3cnccc3C)CC[C@@]1(O)CCN(C1CCCCC1)C2	-6.639 and -8.259	-0.5209 and -2.979
Cc1[nH]ccc1C(=O)N1CCN(C)C2(CCC(=O)N(C)CC2)C1 (centres undefined)	0.3546	0.04795 and -0.6217
NCc1cccc(-c2cccnc2C(=O)NCCN2CCCC2)c1	1.572	10.18
CC(=O)Nc1ccn(Cc2ccccc2)n1	-0.2661	-24.77 and 0.5887
CCCc1nnc(N2CCC3(CC2)CN(C)C(=O)O3)o1	-12.15	3.291
CCNc1ccnc(N2CCCC(CCOC)(C(=O)O)C2)n1 (centres undefined)	-3.817	-28.51
CCc1nnsc1C(=O)N1CCCN(Cc2cnn(C)c2)CC1	-6.2	-16.45
Cc1ccc(NC(C)C(=O)N(C)Cc2cccc(F)c2)cc1C(N)=O (centres undefined)	23.04	1.291 and -16.3
[H][C@@]12CS(=O)(=O)C[C@]1([H])N(Cc1ccc(OCC)cc1)CCN2CCOC	-11.41	-26.78
CC(C)c1noc(C(C)N2CCN(Cc3ccsc3)CC2)n1 (centres undefined)	10.9	-5.923
O=C(CNc1cc(-n2cnnn2)ccc1F)Nc1ccccc1Cl	-8.048	12.27
CC[C@H](C)[C@H](NC(=O)c1ccccc1-n1cnnn1)C(=O)OC	-10.55	3.973
O=C(O)C(F)(F)F.O=C(O)C(F)(F)F.[H][C@]12CCC[C@@]1(COc1ccccn1)CN(C(=O)c1ccc(C)cn1)C2	2.718	-7.396
Cn1c(CN2CCC(O)CC2)nnc1C1CCCN(C(=O)C2CNC2)C1 (centres undefined)	-3.722	-10.08
Cc1ccccc1CC(=O)N1C[C@@H](O)[C@H](N2CCC(F)(F)CC2)C1	-6.775	-22.58

Once more, the final 6:

Compound	Mtb cholesterol medium	Mtb glucose medium
CC(C)c1noc(C(C)N2CCN(Cc3ccsc3)CC2)n1 (centres undefined)	10.9	-5.923
O=C(CNc1cc(-n2cnnn2)ccc1F)Nc1ccccc1Cl	-8.048	12.27
CC[C@H](C)[C@H](NC(=O)c1ccccc1-n1cnnn1)C(=O)OC	-10.55	3.973
O=C(O)C(F)(F)F.O=C(O)C(F)(F)F.[H][C@]12CCC[C@@]1(COc1ccccn1)CN(C(=O)c1ccc(C)cn1)C2	2.718	-7.396
Cn1c(CN2CCC(O)CC2)nnc1C1CCCN(C(=O)C2CNC2)C1 (centres undefined)	-3.722	-10.08
Cc1ccccc1CC(=O)N1C[C@@H](O)[C@H](N2CCC(F)(F)CC2)C1	-6.775	-22.58

Measurements from “University of Dundee, Small-Polar-MMV Screening Library” (2021), ChEMBL document CHEMBL3988442.